This is a selection; strong and weak results do not stand in their true shares. At the low end of the ranking the order means little.

In this assay the target is T1, ETV3 (UniProt P41162-2).
T1 sequence: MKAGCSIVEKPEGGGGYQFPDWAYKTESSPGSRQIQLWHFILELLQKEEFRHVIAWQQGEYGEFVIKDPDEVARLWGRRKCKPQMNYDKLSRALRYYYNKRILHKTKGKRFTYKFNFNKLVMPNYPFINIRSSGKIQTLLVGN
As to the kind of experiment: DAPPL (digital affinity profiling via proximity ligation, sequencing). The conditions noted are these: 10 mM Tris-HCl pH 7.5, 50 mM NaCl, 1 mM DTT, 4% glycerol, room temperature, 30 min; GST-TFs on glutathione beads, 16-mer random dsDNA library, 0.1% …; high values mean tight binding; double strand, one strand shown; scale: fold enrichment (6-mer frequency, TF over GST control).
Regarding CTATCA, the binding signal was 0.969.

GGTCAC showed a binding signal of 0.941. For AGATGT the value was 0.945; for GCAACA, 0.973; for ATCACG, 0.967. The figure for AACGGT is 0.929; for GTTGCC it is 0.94; for AAGCCC it is 1.1. With TCGGCT, the binding signal amounted to 0.925. The sequence GCAATC showed a binding signal of 1.06. On to CACCTG, for which the binding signal was found to be 1.03.

Consider CAGCCT, for which the binding signal came to 0.908. CAAAAG had a binding signal of 1.

In turn, CACCCA came in with a binding signal of 0.996. The figure for GACTGC is 0.997. In the case of GACCGC, the binding signal is 0.903. With GCGTAT, the binding signal came to 0.927. The figure for AGATAA is 0.976.

The values above are taken from publication PMC7862700.
